Laboratory results reported in the supplement of paper PMC6078165.

Test system: MDAMB436
Experiment: relative JC-1 red fluorescence (viability) vs pre-drug, coculture with fibroblast (fraction); higher = more viable cancer cells
Description: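 JC-1 labelled TNBC cells cocultured 1:1 (1,500 cells each) with CellTrace Violet stained primary or stromal fibroblasts in 384-well plates in FluoroBrite medium, treated with one of 42 anticancer drugs at 0.1, 1, 10 or 100 uM. JC-1 red fluorescence (mitochondrial integrity in cancer cells only) was read by plate reader every 8 h for 72 h. Values are normalised to each well's pre-drug value. The stock of one drug was tenfold lower, so its dose labels may be too high.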

CO[C@H]1C[C@@H]2CC[C@@H](C)[C@@](O)(O2)C(=O)C(=O)N2CCCC[C@H]2C(=O)O[C@H]([C@H](C)C[C@@H]2CC[C@@H](OCCO)[C@H](OC)C2)CC(=O)[C@H](C)/C=C(\C)[C@@H](O)[C@@H](OC)C(=O)[C@H](C)C[C@H](C)/C=C/C=C/C=C/1C [Everolimus]
relative JC-1 red fluorescence
Conditions | 8 h | 16 h | 24 h | 32 h | 40 h | 48 h | 56 h | 64 h | 72 h
0.1 µM, coculture fibroblast: C12385 | 0.78256 | 0.682 | 0.646 | 0.564 | 0.5151 | 0.4824 | 0.4619 | 0.4437 | 0.435
0.1 µM, coculture fibroblast: H6013 | 0.8 | 0.771 | 0.765 | 0.768 | 0.757 | 0.795 | 0.76 | 0.754 | 0.725
0.1 µM, coculture fibroblast: H6019 | 0.6872 | 0.64 | 0.606 | 0.536 | 0.505 | 0.496 | 0.481 | 0.466 | 0.452
0.1 µM, coculture fibroblast: H6076 | 0.717 | 0.665 | 0.655 | 0.613 | 0.606 | 0.583 | 0.597 | 0.596 | 0.591
0.1 µM, coculture fibroblast: H6231 | 0.751 | 0.65 | 0.6485 | 0.567 | 0.5512 | 0.517 | 0.509 | 0.486 | 0.473
0.1 µM, coculture fibroblast: HADF | 0.8339 | 0.752 | 0.739 | 0.708 | 0.6959 | 0.7226 | 0.6582 | 0.6528 | 0.615
0.1 µM, coculture fibroblast: HCFa | 0.735 | 0.664 | 0.631 | 0.6 | 0.566 | 0.584 | 0.519 | 0.51 | 0.457
0.1 µM, coculture fibroblast: HCPF | 0.808 | 0.708 | 0.681 | 0.6068 | 0.5814 | 0.549 | 0.5257 | 0.504 | 0.492
0.1 µM, coculture fibroblast: HHSteC | 0.879 | 0.855 | 0.747 | 0.702 | 0.754 | 0.774 | 0.652 | 0.705 | 0.717
0.1 µM, coculture fibroblast: HMF | 0.706 | 0.658 | 0.628 | 0.58 | 0.565 | 0.526 | 0.527 | 0.51 | 0.502
0.1 µM, coculture fibroblast: HPFa | 0.88 | 0.79 | 0.753 | 0.711 | 0.686 | 0.691 | 0.624 | 0.606 | 0.547
0.1 µM, coculture fibroblast: HUF | 0.829 | 0.701 | 0.662 | 0.585 | 0.526 | 0.496 | 0.471 | 0.459 | 0.449
0.1 µM, coculture fibroblast: Hs5 | 0.781 | 0.701 | 0.691 | 0.641 | 0.628 | 0.586 | 0.598 | 0.565 | 0.56
0.1 µM, coculture fibroblast: Hs27A | 0.767 | 0.676 | 0.665 | 0.646 | 0.632 | 0.701 | 0.615 | 0.603 | 0.535
0.1 µM, coculture fibroblast: Hs343T | 0.7554 | 0.7 | 0.669 | 0.624 | 0.6091 | 0.574 | 0.5708 | 0.5617 | 0.5539
0.1 µM, coculture fibroblast: WS1 | 0.7531 | 0.6756 | 0.6366 | 0.5537 | 0.52485 | 0.5021 | 0.484 | 0.467 | 0.455
1 µM, coculture fibroblast: C12385 | 0.8397 | 0.78 | 0.7123 | 0.6377 | 0.592 | 0.572 | 0.548 | 0.524 | 0.519
1 µM, coculture fibroblast: H6013 | 0.838 | 0.772 | 0.748 | 0.744 | 0.728 | 0.751 | 0.727 | 0.719 | 0.689
1 µM, coculture fibroblast: H6019 | 0.77 | 0.713 | 0.6919 | 0.615 | 0.5751 | 0.5551 | 0.5226 | 0.492 | 0.466
1 µM, coculture fibroblast: H6076 | 0.7725 | 0.68 | 0.6708 | 0.6436 | 0.6258 | 0.6053 | 0.62269 | 0.6222 | 0.6239
1 µM, coculture fibroblast: H6231 | 0.7487 | 0.679 | 0.658 | 0.6108 | 0.573 | 0.5421 | 0.5295 | 0.5012 | 0.486
1 µM, coculture fibroblast: HADF | 0.88 | 0.836 | 0.778 | 0.758 | 0.725 | 0.734 | 0.685 | 0.664 | 0.6159
1 µM, coculture fibroblast: HCFa | 0.829 | 0.767 | 0.737 | 0.712 | 0.678 | 0.7 | 0.638 | 0.635 | 0.579
1 µM, coculture fibroblast: HCPF | 0.79 | 0.736 | 0.711 | 0.67 | 0.644 | 0.612 | 0.588 | 0.571 | 0.556
1 µM, coculture fibroblast: HHSteC | 0.863 | 0.829 | 0.7883 | 0.774 | 0.759 | 0.774 | 0.716 | 0.696 | 0.648
1 µM, coculture fibroblast: HMF | 0.77 | 0.695 | 0.652 | 0.612 | 0.59 | 0.56 | 0.563 | 0.546 | 0.539
1 µM, coculture fibroblast: HPFa | 0.818 | 0.796 | 0.947 | 0.837 | 0.83 | 0.942 | 0.832 | 0.947 | 0.904
1 µM, coculture fibroblast: HUF | 0.8426 | 0.7442 | 0.71 | 0.634 | 0.5755 | 0.5475 | 0.513 | 0.501 | 0.487
1 µM, coculture fibroblast: Hs5 | 0.832 | 0.764 | 0.788 | 0.739 | 0.737 | 0.703 | 0.718 | 0.692 | 0.688
1 µM, coculture fibroblast: Hs27A | 0.795 | 0.746 | 0.729 | 0.724 | 0.704 | 0.761 | 0.7 | 0.694 | 0.639
1 µM, coculture fibroblast: Hs343T | 0.7856 | 0.719 | 0.67 | 0.639 | 0.608 | 0.577 | 0.573 | 0.555 | 0.545
1 µM, coculture fibroblast: WS1 | 0.821 | 0.736 | 0.696 | 0.615 | 0.572 | 0.555 | 0.529 | 0.505 | 0.496

The reference is the same well before dosing, and untreated signal decays as well.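 Fibroblast labels name human fibroblasts: mostly primary ones from tissues such as uterus (C12385, HUF), lung (H6013), bone (Hs27A), adrenal (HADF) and skin (WS1), plus mammary HMF and breast cancer-associated Hs343T. The cancer cells are basal-like or mesenchymal-like triple-negative breast cancer lines. The paper calls a changed response a hit when it shifts by more than 3x the replicate standard deviation. The tissue of the other fibroblasts is not given here.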
